Measurements: article PMC7751685

T1: B55δ regulatory subunit of PP2A (endogenous) (human (endogenous in BT549)) (UniProt Q66LE6)
T1 sequence: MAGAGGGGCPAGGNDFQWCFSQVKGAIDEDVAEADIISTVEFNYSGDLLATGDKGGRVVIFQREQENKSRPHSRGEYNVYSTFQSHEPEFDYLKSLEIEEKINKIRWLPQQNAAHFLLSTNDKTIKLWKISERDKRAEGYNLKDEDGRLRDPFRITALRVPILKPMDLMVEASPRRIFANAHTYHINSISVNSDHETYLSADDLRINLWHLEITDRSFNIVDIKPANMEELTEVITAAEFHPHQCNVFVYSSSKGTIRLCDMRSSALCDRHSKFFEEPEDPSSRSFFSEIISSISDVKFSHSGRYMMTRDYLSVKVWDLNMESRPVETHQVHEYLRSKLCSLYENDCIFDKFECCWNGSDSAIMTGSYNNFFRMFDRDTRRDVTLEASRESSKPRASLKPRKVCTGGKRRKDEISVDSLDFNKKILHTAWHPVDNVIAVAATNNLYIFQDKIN


How the values were obtained:
[1] = biological target: T1, B55δ regulatory subunit of PP2A (endogenous) (human (endogenous in BT549)); test: co-IP; endogenous proteins, BT549 and HS578T lysates in NETN buffer; IP with anti-CDC25B, anti-PP2A-C, anti-B56δ, anti-B55δ or anti-AMPKα against control IgG; cells also treated with metformin, LB100, siAMPK, siCDC25B, siB56δ, CDC25B knockout or CDC25B overexpression
[2] = biological target: CDC25B (endogenous) (human (endogenous in BT549 and HS578T)); test: as above

| Molecule | binding [1] | binding [2] |
| --- | --- | --- |
| CDC25B (endogenous) (human (endogenous in BT549 and HS578T)) | no binding |  |
| B55δ regulatory subunit of PP2A (endogenous) (protein, UniProt Q66LE6 1-453) MAGAGGGGCPAGGNDFQWCFSQVKGAIDEDVAEADIISTVEFNYSGDLLATGDKGGRVVIFQREQENKSRPHSRGEYNVYSTFQSHEPEFDYLKSLEIEEKINKIRWLPQQNAAHFLLSTNDKTIKLWKISERDKRAEGYNLKDEDGRLRDPFRITALRVPILKPMDLMVEASPRRIFANAHTYHINSISVNSDHETYLSADDLRINLWHLEITDRSFNIVDIKPANMEELTEVITAAEFHPHQCNVFVYSSSKGTIRLCDMRSSALCDRHSKFFEEPEDPSSRSFFSEIISSISDVKFSHSGRYMMTRDYLSVKVWDLNMESRPVETHQVHEYLRSKLCSLYENDCIFDKFECCWNGSDSAIMTGSYNNFFRMFDRDTRRDVTLEASRESSKPRASLKPRKVCTGGKRRKDEISVDSLDFNKKILHTAWHPVDNVIAVAATNNLYIFQDKIN |  | no binding |

Results are given in words; binding and its absence hold for the method and conditions named. In cells and extracts the contact can be indirect.
